Source: PubChem BioAssay (EPA / NIEHS)
Values joined by “and” are separate entries in the source; they are usually repeats but may differ in a detail not shown here. Equal entries are not always repeated. The shares of active, inactive and inconclusive entries below differ from those in the screen. Potencies of inconclusive entries are doubtful fits and often do not repeat. More than one record can exist for a structure, and the calls need not agree. Active and inactive are the calls of the source. Rule for the calls: active = hit-call score of the fitted dose curve at least 0.9, where 1 is the maximum; inconclusive = response in the unintended direction; inactive = score below 0.9.

Amino acid sequences for entries named in this document (tags omitted).
UniProt P04637, whole entry, looked up: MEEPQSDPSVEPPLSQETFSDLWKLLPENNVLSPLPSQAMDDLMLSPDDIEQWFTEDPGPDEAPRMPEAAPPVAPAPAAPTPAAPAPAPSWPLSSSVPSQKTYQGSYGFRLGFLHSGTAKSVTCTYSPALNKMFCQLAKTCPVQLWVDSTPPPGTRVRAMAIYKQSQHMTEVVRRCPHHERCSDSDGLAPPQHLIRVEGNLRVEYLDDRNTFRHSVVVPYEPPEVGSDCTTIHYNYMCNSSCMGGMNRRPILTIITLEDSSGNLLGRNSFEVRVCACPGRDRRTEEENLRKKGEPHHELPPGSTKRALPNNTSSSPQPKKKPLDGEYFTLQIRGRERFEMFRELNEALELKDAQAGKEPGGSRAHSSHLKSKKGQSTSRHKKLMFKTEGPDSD

Columns and labels:
[1] = TOX21_p53_BLA_p3_viability: Viability Assessment in the Tox21 HCT-116 p53 Agonism Beta-lactamase Assay, Phase 3 (AID 2283593);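 note: cells exposed to compound for 16 h before reading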
How it was run: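 HCT116 cells, 4000/well, dosed 5 h after plating by pin transfer (217-fold dilution from DMSO stock) and incubated 16 h at 37C, 5% CO2. Viability read as ATP luminescence with CellTiter-Glo after 30 min at room temperature.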

[2] = molecular target: Cellular tumor antigen p53 (Homo sapiens) (UniProt P04637); test: TOX21_p53_BLA_p3_ratio: Tox21 HCT-116 p53 Agonism Beta-lactamase Assay, Ratio, Phase 3 (AID 2283596)
How it was run: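 HCT116 p53-bla cells (4000/well) given compound in DMSO (217-fold dilution) after 5 h, incubated 16 h at 37C. CCF4-AM substrate 2 h at room temperature; 460/530 nm emission ratio, gain fitted against DMSO.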

[3] = TOX21_p53_BLA_p4_viability: Viability Assessment in the Tox21 HCT-116 p53 Agonism Beta-lactamase Assay, Phase 4 (AID 2283597);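 note: hits lower the luminescence signal meaning cytotoxicity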
How it was run: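 HCT116 p53-bla cells (4000/well) rested 5 h at 37C, then received compounds in DMSO (217-fold dilution) for 16 h at 37C, 5% CO2. CellTiter-Glo was added after the CCF4-AM read, and luminescence was read after 30 min at room temperature.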

[4] = molecular target: Cellular tumor antigen p53 (Homo sapiens) (UniProt P04637); test: TOX21_p53_BLA_p5_ratio: Tox21 HCT-116 p53 Agonism Beta-lactamase Assay, Ratio, Phase 5 (AID 2283599)
How it was run: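 HCT-116 p53-bla cells (4000/well) plated 5 h, dosed with compound (217-fold DMSO dilution) for 16 h at 37 C; CCF4-AM substrate 2 h at room temperature. Activity is the 460/530 nm emission ratio (405 nm excitation), fitted in gain-of-signal direction versus DMSO.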

[5] = TOX21_p53_BLA_p5_viability: Viability Assessment in the Tox21 HCT-116 p53 Agonism Beta-lactamase Assay, Phase 5 (AID 2283600)
How it was run: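 Cells were plated at 4000/well, rested 5 h at 37C, then given compounds in DMSO (217-fold dilution) for 16 h at 37C, 5% CO2. Following the CCF4-AM beta-lactamase read, CellTiter-Glo was added and luminescence was read after 30 min at room temperature.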

[6] = molecular target: Cellular tumor antigen p53 (Homo sapiens) (UniProt P04637); test: TOX21_p53_BLA_p4_ratio: Tox21 HCT-116 p53 Agonism Beta-lactamase Assay, Ratio, Phase 4 (AID 2283601)
How it was run: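 HCT-116 p53 beta-lactamase reporter cells (4000/well) preincubated 5 h, then compound (217-fold dilution of DMSO stock) for 16 h at 37C. CCF4-AM substrate added 2 h at room temperature; 460/530 nm emission ratio fitted upward versus DMSO.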

[7] = Tanguay_ZF_120hpf_EYE_legacy: (Legacy) Oregon State University Tanguay Lab 120 Hour Post-fertilization zebrafish Assay for Eye Malformation (AID 2283636);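 note: binary presence or absence of eye malformation scored by brightfield in 120 hpf larvae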
How it was run: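 Dechorionated Tropical 5D zebrafish embryos, one per well from 6 hpf, static exposure to 120 hpf at 28C, 0.64% DMSO. Eye malformation scored present/absent by brightfield; dead embryos not scored.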

SMILES: Nc1cc(Cl)c(N)c(Cl)c1
- AC50 [1]: inconclusive: 46.1 µM
- AC50 [2]: inconclusive: 46.1 µM and inconclusive: 45.8 µM
- AC50 [3]: inconclusive: 14.3 µM
- AC50 [4]: inconclusive: 46.1 µM and inconclusive: 45.8 µM
- AC50 [5]: inconclusive: 9.14 µM and inconclusive: 45.8 µM

SMILES: CO[Si](CCCS)(OC)OC
- AC50 [1]: inconclusive: 46.1 µM
- outcome [2]: inactive
- AC50 [3]: inconclusive: 46.1 µM

SMILES: C=CCOC(=O)c1ccccc1C(=O)OCC=C
- AC50 [1]: inconclusive: 46.1 µM and inconclusive: 45.5 µM
- AC50 [2]: inconclusive: 45.5 µM
- outcome [2]: inactive
- AC50 [3]: inconclusive: 31.1 µM and inconclusive: 45.5 µM
- AC50 [5]: inconclusive: 45.5 µM

SMILES: O=C(N[C@H](CO)[C@H](O)c1ccc([N+](=O)[O-])cc1)C(Cl)Cl
- outcome [5]: inactive
- outcome [6]: inactive

SMILES: CCCCCCCCC1CCC(=O)O1 (stereo not drawn)
- AC50 [1]: inconclusive: 9.14 µM
- AC50 [3]: inconclusive: 87.1 µM

SMILES: CCCCCCCCCCCO
- AC50 [1]: inconclusive: 47 µM
- outcome [1]: inactive
- AC50 [6]: inconclusive: 46.1 µM and inconclusive: 47 µM

SMILES: CCCCCCCCCCCCCOP(=O)(O)O
- AC50 [1]: active: 72.2 µM
- AC50 [2]: active: 86.8 µM
- outcome [3]: inactive
- AC50 [4]: inconclusive: 33.1 µM
- AC50 [5]: inconclusive: 1.92 µM

SMILES: CC(C)COC(=O)C=Cc1ccccc1
- AC50 [1]: inconclusive: 46.1 µM
- AC50 [3]: inconclusive: 46.1 µM

SMILES: NC(CO)(CO)CO
- AC50 [1]: inconclusive: 46 µM [middle of 4 runs]
- AC50 [3]: inconclusive: 46 µM and inconclusive: 23 µM and inconclusive: 46.1 µM
- outcome [3]: inactive
- AC50 [4]: inconclusive: 46 µM
- outcome [4]: inactive
- AC50 [5]: inconclusive: 37.4 µM
- AC50 [6]: inconclusive: 46.1 µM

SMILES: CC1OC1C1CCC2(C)OC2C1 (stereo not drawn)
- outcome [3]: inactive
- AC50 [5]: inconclusive: 46.1 µM
- outcome [6]: inactive

SMILES: CC(C)(C)C(=O)C1C(=O)c2ccccc2C1=O
- AC50 [1]: active: 62 µM
- AC50 [2]: active: 42.7 µM and active: 35.6 µM
- outcome [3]: inactive
- AC50 [4]: active: 67.3 µM
- outcome [4]: inactive
- AC50 [6]: inconclusive: 8.22 µM

SMILES: C=CC(C)(CCC=C(C)C)OC=O (stereo not drawn)
- AC50 [1]: inconclusive: 46.1 µM
- AC50 [3]: inconclusive: 46.1 µM
- AC50 [4]: inconclusive: 46.1 µM
- AC50 [5]: inconclusive: 46.1 µM

SMILES: O=C1C=CC(=O)O1
- AC50 [1]: inconclusive: 48.1 µM
- AC50 [2]: inconclusive: 65.3 µM
- AC50 [3]: inconclusive: 12.8 µM
- outcome [5]: inactive

SMILES: CC(C)(C)C1CCCCC1O (stereo not drawn)
- outcome [1]: inactive
- AC50 [2]: inconclusive: 46.1 µM
- AC50 [5]: inconclusive: 46.1 µM

SMILES: CCN(Cc1cccnc1)C(=O)c1cccc(Cl)c1[C@]1(C)C(=O)N(Cc2ccc(OC)cc2OC)c2ccc(Cl)cc21
- AC50 [2]: active: 40.9 µM
- AC50 [4]: active: 52.1 µM
- AC50 [6]: active: 44.5 µM
- AC50 [7]: inconclusive: 19.1 µM

SMILES: Clc1cc(Cl)c(Cl)c(Cl)c1Cl
- AC50 [4]: inconclusive: 46.1 µM

SMILES: C=C(C)C(=O)OCCCCCC
- AC50 [1]: inconclusive: 37.5 µM and inconclusive: 46.1 µM
- AC50 [2]: inconclusive: 46.1 µM
- AC50 [3]: inconclusive: 4.66e-05 µM
- outcome [3]: inactive
- outcome [4]: inactive
- AC50 [5]: inconclusive: 46.1 µM
- AC50 [6]: inconclusive: 46.1 µM
- outcome [6]: inactive

SMILES: COCCOC(=O)CC#N
- outcome [1]: inactive
- AC50 [2]: inconclusive: 46.1 µM
- AC50 [3]: inconclusive: 80.7 µM

SMILES: C[Si](C)(CCCN)O[Si](C)(C)CCCN
- outcome [2]: inactive
- AC50 [5]: inconclusive: 0.215 µM
